{"source": "patent US11096917B2", "about": "“Composition for preventing or treating muscle diseases, comprising suberic acid or pharmaceutically acceptable salt thereof as active ingredient” (INDUSTRY-ACADEMIC COOPERATION FOUNDATION, YONSEI UNIVERSITY, priority 2017, dated 2021)", "key": {"MaFbx/atrogin-1": {"system": "MaFbx/atrogin-1", "test": "RT-PCR of MaFbx/atrogin-1 gene expression in dexamethasone-treated myotubes", "format": "cell-based, mouse", "settings": "50 μM dexamethasone, 2 days, vs normal cells (Basal); FIG. 2B", "description": "(§1) A mouse myoblast cell line (C2C12 cells) was purchased from the American Type Culture Collection (ATCC, Manassas, Va., USA), and the purchased cells were cultured at 37° C. in a 5% CO2 incubator using a 10% fetal bovine serum medium (Gibco-BRL). When the cultured cells reached 80% confluence, the cells were differentiated into myotubes using a 2% horse serum medium (Gibco-BRL).\n(§2) From the fourth day of differentiation, the cells were treated with 50 μM dexamethasone (dexa; Sigma) and 100 μM suberic acid (CAS Number 505-48-6, Sigma) for 2 days.\n(§3) The cells were treated with 50 μM dexamethasone (dexa; Sigma) in the same manner as in Example 1.\n(§4) 1×10^7 mouse myoblast cells were added to 334 μL of a TRIzol solution, and pulverized. Thereafter, the resulting cell solution was centrifuged at 4° C. and 12,000× g for 10 minutes. The supernatant was transferred to a new tube, and 67 μL of chloroform was added thereto, and vortexed. The supernatant was again transferred to a new tube, and isopropanol was added so that a ratio of the supernatant and isopropanol was 1:1. […] A concentration of the extracted RNA sample was measured at wavelengths of 260 nm and 280 nm using a UV/VIS spectrophotometer (Beckman coulter, DU730), and the integrity of the RNA sample was determined by means of agarose gel electrophoresis. […]"}, "p-4E-BP1": {"system": "p-4E-BP1", "test": "Western blotting of p-4E-BP1 in dexamethasone-treated myotubes", "format": "cell-based, mouse", "settings": "50 μM dexamethasone, 2 days, vs normal cells (Basal); FIG. 2A", "description": "as §1, §2, §3\n(§5) To perform Western blotting in the cells, 500 μL of a lysis buffer, which included 100 mM Tris-HCl (pH 7.4), 5 mM EDTA, 50 mM sodium pyrophosphate, 50 mM NaF, 100 mM orthovanadate, 1% Triton X-100, 1 mM phenylmethanesulfonyl fluoride, 2 μg/mL aprotinin, 1 μg/mL pepstatin A, and 1 μg/mL leupeptin, was added to each well from which a medium was removed, and the cell suspension was harvested, and then centrifuged at 4° C. and 1,300×g for 20 minutes. Thereafter, the middle layer was taken, and proteins were quantified according to the Bradford method (Bio-Rad). […] The bands visualized on the X-ray film were scanned, and then quantified using Quantity One analysis software (Bio-Rad)."}, "[1]": {"system": "mouse myoblast cell line (C2C12 cells)", "test": "Giemsa-Wright staining; thickness, length and fusion index of myotubes reduced by dexamethasone", "format": "cell-based", "settings": "50 μM dexamethasone, 2 days, vs normal cells (Basal)", "description": "as §1, §2, §3\nThe myotubes prepared in Example 1 were washed twice with phosphate-buffered saline (PBS), and then immobilized with 100% methanol for 10 minutes. When the immobilization was completed, the myotubes were air-dried at room temperature for 10 minutes, and then stained for 30 minutes by dropwise addition of a Giemsa-Wright staining solution (ASAN Pharmaceutical Co., Ltd., Seoul) which is used to specifically stain myotubes.\nThe myotubes thus stained were photographed at 100× and 40× magnifications using a fluorescence microscope (IX 71, Olympus), and then analyzed using Image J software (USA). Six regions in each well were randomly selected and photographed using a microscope. The thicknesses, lengths and fusion indexes of at least 100 myoblast cells in each well were analyzed (in triplicate/group)."}, "MuRF1": {"system": "MuRF1", "test": "RT-PCR of MuRF1 gene expression in dexamethasone-treated myotubes", "format": "cell-based, mouse", "settings": "50 μM dexamethasone, 2 days, vs normal cells (Basal); FIG. 2B", "description": "as §1, §2, §3, §4"}, "p-p70S6K1": {"system": "p-p70S6K1", "test": "Western blotting of p-p70S6K1 in dexamethasone-treated myotubes", "format": "cell-based, mouse", "settings": "50 μM dexamethasone, 2 days, vs normal cells (Basal); FIG. 2A", "description": "as §1, §2, §3, §5"}}, "note": "At least one structure is not confirmed: it was looked up by name or label, or the drawing left a doubt."}
{"compound": "C[C@@H]1C[C@H]2[C@@H]3CCC4=CC(=O)C=C[C@]4(C)[C@@]3(F)[C@@H](O)C[C@]2(C)[C@@]1(O)C(=O)CO", "note": "[dexamethasone, reference compound]", "values": [{"measurement": "expression of MaFbx/atrogin-1", "setting": "MaFbx/atrogin-1", "value": "significantly increased"}, {"measurement": "amount of p-4E-BP1 protein", "setting": "p-4E-BP1", "value": "significantly decreased"}, {"measurement": "fusion index of the myotubes", "setting": "[1]", "value": "significantly reduced"}, {"measurement": "length of the myotubes", "setting": "[1]", "value": "significantly reduced"}, {"measurement": "thickness of the myotubes", "setting": "[1]", "value": "significantly reduced"}, {"measurement": "expression of MuRF1", "setting": "MuRF1", "value": "significantly increased"}, {"measurement": "amount of p-p70S6K1 protein", "setting": "p-p70S6K1", "value": "significantly decreased"}]}
